Source: patent US8759371B2, “Heterocyclic compounds and their uses” (Amgen Inc., priority 2010, dated 2014)
pIC50: −log10 of the molar value. Where two headings read alike, the source gives them in different places. For at least one compound, name, drawing or mass did not settle the structure.

Experiments:
neutrophil migration = conditions: cited from earlier work
Class I PI 3-kinases = conditions: cited from earlier work
superoxide release = conditions: cited from earlier work
CHO-IR-AKT1-EGFP cells = assay: AKT Membrane Ruffling Assay; type: cell-based; conditions: 10 uM, assay control
U2OS EGFP-2XFYVE cells = assay: Class III PI(3)P Assay; type: cell-based; conditions: 10 uM, assay control
[1] = tested on: MDA MB468 Forkhead-DiversaGFP cells; assay: Forkhead Translocation Assay; type: cell-based; conditions: 10 uM, assay control

Structure (SMILES): O=c1cc(N2CCOCC2)oc2c(-c3ccccc3)cccc12 [LY294002]
- neutrophil migration (neutrophil migration): block
- pIC50 (Class I PI 3-kinases; read-out: IC50 against each of these PI 3-kinases): ~6.00
- superoxide release (superoxide release): block

Structure (SMILES): COC[C@H]1OC(=O)c2coc3c2[C@@]1(C)C1=C(C3=O)[C@@H]2CCC(=O)[C@@]2(C)C[C@H]1OC(C)=O [wortmannin]
- AKT localisation (CHO-IR-AKT1-EGFP cells): cytoplasmic
- PI(3)P on endosomes (U2OS EGFP-2XFYVE cells): depleted from endosomes
- Forkhead localisation [1]: nuclear
- neutrophil migration (neutrophil migration): block
- pIC50 (Class I PI 3-kinases; read-out: IC50 against each of the various Class I PI 3-kinases): 8.00 to 9.00
- superoxide release (superoxide release): block
